Source: patent US20250011738A1, “HEAT TOLERANT ALKALINE PHOSPHATASE” (BiomEdit, LLC, priority 2021, published 2025)
At least one read-out could not be matched to a standard name with certainty. For at least one compound, name, drawing or mass did not settle the structure.

Target: T1, Paenibacillus lentus alkaline phosphatase AP1 (designated "Native"), serine (S) replacement for an aspartic acid (D), SEQ ID NO: 4 (Paenibacillus lentus, UniProt A0A3Q8S6G4, D102S)
T1 sequence (A0A3Q8S6G4 34-572 D102S): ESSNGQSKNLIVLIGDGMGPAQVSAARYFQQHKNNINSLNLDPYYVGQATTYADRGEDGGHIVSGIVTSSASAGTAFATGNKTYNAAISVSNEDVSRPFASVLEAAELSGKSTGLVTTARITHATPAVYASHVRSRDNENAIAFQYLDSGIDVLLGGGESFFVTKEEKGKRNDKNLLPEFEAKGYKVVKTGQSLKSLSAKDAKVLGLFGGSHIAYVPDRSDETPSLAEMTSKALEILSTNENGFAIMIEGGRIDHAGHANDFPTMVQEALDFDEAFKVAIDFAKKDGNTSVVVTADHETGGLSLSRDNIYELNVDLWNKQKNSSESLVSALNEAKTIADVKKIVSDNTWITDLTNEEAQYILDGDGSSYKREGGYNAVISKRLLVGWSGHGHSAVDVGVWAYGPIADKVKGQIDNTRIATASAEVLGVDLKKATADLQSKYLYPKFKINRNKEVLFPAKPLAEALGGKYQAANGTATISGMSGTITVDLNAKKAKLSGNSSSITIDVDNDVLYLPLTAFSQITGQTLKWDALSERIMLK
Test: Phosphatase kinetics with p-NPP, AP1 ("Native")
Type: biochemical
Procedure: FIG. 7 presents effect of pH on (A)Vmax (IU/mg) and (B) KM (μM) activity of AP1 (designated “Native”) and APHT (designated “HT”). Assays were performed at 40° C. with p-NPP as substrate in the concentration range 0-5 mM. The enzyme concentration was 2.5 μg/mL for the pH 8 and 0.4 mg/mL for pH 9-13).
FIG. 8 presents effect of pH on (A)Vmax (IU/mg) and (B) KM (μM) activity of AP1 (designated “Native”) and APHT (designated “HT”). Assays were performed at 50° C. with p-NPP as substrate in the concentration range 0-5 mM. The enzyme concentration was 2.5 μg/mL for the pH 8 and 0.4 mg/mL for pH 9-13).
Enzymes, including lysozyme and alkaline phosphatase, are recognized as disruptors of bacterial debris and inflammation. These enzymes reduce inflammation, including by lysing the peptidoglycans and LPS of bacteria, thus deactivating them and thereby bypassing the inflammatory response. An alkaline phosphatase was initially identified and modified from Paenibacillus lentus bacteria and expressed for application and use as a farm animal feed additive. This modified alkaline phosphatase is characterized by having a serine (S) replacement for an aspartic acid (D) in the native bacterial alkaline phosphatase protein sequence and is designated herein as AP1. […] The AP1 alkaline phosphate is described including in U.S. Pat. No. 9,326,535 issued May 3, 2016. The sequence of AP1 is as follows (the serine is in bold and underlined) (SEQ ID NO:4):
• 1 M DEA Buffer pH 10. Dissolve 10.5 g of diethanolamine in to 100 ml of water. The pH adjust with 1 M hydrochloric acid or 1 M NaOH. Filter sterilize and store at 4 C. • 0.5 M Tris Base Buffer pH 10 and 8. Dissolve 6.06 g of Tris in to 100 ml of water. The pH adjust with 1 M hydrochloric acid or 1 M NaOH. Filter sterilize and store at 4 C. • 0.1 M Borate Buffer pH 11 and 12. Dissolve 0.62 g Boric acid, 0.44 g NaCl and Sodium tetraborate 0.95 g in 100 ml H2O. The pH adjust with 1 M hydrochloric acid or 1 M NaOH. Filter sterilize and store at 4 C. • 1 M KCl/NaOH Buffer pH 13. Dissolve 7.4 g KCl in 100 ml water. The pH adjust with 1 M NaOH. Filter sterilize and store at 4 C. • 1 M MgCl2, 23.8 g MgCl2 anhydrous in […] water. Filter sterilize and store at 4 C 3. Activity Assay: p-NPP Substrate
Reactions were carried out at 40° C. using 50 mM Tris buffer pH 7 with 50 mM MgCl2 and at 50° C. using 50 mM DEA buffer pH 10 with 50 mM MgCl2. Enzyme was thawed, aliquoted in 500 μL vials and freeze at −80° C. For 100 μL volume of reaction, components were mixed in 96-well microplate (Fisher 12565501) following the order in TABLE 1. Every reaction condition was done by triplicated at least.
After the adding enzyme, the absorption of product was followed at 405 nm over 5 min in a M5 plate reader with intervals of 20 s. Initial rate was determined for each curve and product formed calculated using the extinction coefficient of 18.5 mM^−1·cm^−1 and a calculated pathlength of 0.5 cm. Initial rates where fitted to Michalis Menten model built in the Kaleidagraph software.
pH effect on enzyme activity was tested at 40 and 50° C. in the corresponding buffer with 50 mM MgCl2 using p-NPP as substrate in the concentration range 0-5.0 mM. The reaction started with the addition of enzyme (2.5 μg/mL for pH 8 and 0.4 μg/mL for pH 9-13) and the absorption at 405 nm was followed for 5 min. Every reaction condition was done by triplicated at least. The initial rates where fitted to Michalis Menten model built in the software Kaleidagraph.

O=[N+]([O-])c1ccc(OP(=O)(O)O)cc1 [p-NPP, p-nitrophenylphosphate]
Vmax (40° C., Borate pH 11): 5210 IU/mg
Km (40° C., Borate pH 12): 290 µM
Vmax (40° C., Borate pH 12): 2970 IU/mg
Vmax (40° C., DEA pH 10): 5752 IU/mg
Vmax (40° C., Tris pH 8): 161 IU/mg
Vmax (40° C., Tris pH 9): 2439 IU/mg
Vmax (50° C., Borate pH 11): 3330 IU/mg
Vmax (50° C., Borate pH 12): 3042 IU/mg
Km (50° C., DEA pH 10): 2900 µM
Vmax (50° C., DEA pH 10): 485 IU/mg
Vmax (50° C., KCl/NaOH (pH printed 204; Table 2: 13.0)): 204 IU/mg
Vmax (50° C., Tris pH 8): 3752 IU/mg
Vmax (50° C., Tris pH 9): 2656 IU/mg
